Data from the supplement of paper PMC12819154, “High-throughput peptide-centric local stability assay extends protein–ligand identification to membrane proteins, tissues and bacteria” (Nature Structural & Molecular Biology, 2025).
This is one part of the list. Small differences around the control level are noise.

The chains behind the UniProt entries cited, without tags or fusion partners. Where a name states a change or a piece, a line headed by the entry shows the natural chain unless it says otherwise.
UniProt Q8WV60: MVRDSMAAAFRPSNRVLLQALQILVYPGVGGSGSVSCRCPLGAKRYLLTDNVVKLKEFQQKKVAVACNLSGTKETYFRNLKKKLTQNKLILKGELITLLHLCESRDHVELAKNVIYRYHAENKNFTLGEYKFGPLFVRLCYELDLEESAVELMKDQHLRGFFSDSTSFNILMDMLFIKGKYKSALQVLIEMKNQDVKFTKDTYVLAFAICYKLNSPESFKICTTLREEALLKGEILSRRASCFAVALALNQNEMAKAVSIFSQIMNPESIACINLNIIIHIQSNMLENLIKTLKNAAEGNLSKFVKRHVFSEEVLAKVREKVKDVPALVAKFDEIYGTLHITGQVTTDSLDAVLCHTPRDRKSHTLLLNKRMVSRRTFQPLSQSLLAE
UniProt Q8WVN8: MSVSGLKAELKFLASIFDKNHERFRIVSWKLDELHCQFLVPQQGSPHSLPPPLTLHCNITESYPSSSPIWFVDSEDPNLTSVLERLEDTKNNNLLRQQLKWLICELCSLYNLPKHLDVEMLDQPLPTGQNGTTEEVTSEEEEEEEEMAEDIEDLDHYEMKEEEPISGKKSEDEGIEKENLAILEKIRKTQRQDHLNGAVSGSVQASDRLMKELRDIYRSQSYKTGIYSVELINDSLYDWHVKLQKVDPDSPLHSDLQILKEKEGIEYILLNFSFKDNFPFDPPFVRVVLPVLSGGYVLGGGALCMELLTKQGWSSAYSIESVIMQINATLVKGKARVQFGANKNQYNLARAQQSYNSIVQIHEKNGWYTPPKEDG
UniProt Q92543: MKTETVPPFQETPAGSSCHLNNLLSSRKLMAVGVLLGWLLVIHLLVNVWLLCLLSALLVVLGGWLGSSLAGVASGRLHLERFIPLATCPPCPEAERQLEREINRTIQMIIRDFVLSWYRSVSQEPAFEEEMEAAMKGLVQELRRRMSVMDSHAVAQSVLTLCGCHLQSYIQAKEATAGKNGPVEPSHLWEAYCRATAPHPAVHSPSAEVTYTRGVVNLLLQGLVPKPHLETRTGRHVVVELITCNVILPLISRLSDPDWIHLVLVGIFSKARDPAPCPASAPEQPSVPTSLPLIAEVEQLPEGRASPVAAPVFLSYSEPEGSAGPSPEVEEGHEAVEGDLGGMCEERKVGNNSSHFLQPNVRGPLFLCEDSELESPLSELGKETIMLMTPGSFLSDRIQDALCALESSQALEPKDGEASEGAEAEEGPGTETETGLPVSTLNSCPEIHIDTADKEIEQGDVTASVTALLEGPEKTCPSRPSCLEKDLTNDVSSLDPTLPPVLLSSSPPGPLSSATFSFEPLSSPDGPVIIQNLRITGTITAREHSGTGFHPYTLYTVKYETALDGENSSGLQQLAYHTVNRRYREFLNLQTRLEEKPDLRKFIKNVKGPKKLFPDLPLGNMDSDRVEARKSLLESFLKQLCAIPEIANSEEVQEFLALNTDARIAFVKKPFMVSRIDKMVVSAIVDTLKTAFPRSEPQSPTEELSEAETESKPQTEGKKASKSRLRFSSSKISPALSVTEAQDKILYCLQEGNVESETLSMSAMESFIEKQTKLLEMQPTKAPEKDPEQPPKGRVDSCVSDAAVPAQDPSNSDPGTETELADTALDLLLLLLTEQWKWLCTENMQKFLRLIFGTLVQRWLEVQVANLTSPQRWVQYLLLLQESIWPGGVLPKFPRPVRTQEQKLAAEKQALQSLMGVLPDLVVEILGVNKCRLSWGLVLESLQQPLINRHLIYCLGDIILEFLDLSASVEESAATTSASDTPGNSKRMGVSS
UniProt Q8TBZ3: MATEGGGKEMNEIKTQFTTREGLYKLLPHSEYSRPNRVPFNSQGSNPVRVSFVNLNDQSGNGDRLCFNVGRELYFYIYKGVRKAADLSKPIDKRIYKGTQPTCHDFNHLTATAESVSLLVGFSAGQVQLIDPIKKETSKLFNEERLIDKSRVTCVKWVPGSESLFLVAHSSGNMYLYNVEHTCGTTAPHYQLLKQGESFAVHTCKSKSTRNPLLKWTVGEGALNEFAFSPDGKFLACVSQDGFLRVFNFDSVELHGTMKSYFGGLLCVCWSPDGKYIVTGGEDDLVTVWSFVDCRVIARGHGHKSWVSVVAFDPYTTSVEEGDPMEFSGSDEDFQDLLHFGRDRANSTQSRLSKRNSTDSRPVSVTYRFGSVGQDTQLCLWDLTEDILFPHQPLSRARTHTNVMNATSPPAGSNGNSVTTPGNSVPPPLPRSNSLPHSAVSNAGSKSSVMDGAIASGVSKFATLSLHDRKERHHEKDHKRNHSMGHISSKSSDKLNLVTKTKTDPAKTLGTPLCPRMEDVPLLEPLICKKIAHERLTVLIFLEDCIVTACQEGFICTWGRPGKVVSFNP
UniProt Q8WYA6: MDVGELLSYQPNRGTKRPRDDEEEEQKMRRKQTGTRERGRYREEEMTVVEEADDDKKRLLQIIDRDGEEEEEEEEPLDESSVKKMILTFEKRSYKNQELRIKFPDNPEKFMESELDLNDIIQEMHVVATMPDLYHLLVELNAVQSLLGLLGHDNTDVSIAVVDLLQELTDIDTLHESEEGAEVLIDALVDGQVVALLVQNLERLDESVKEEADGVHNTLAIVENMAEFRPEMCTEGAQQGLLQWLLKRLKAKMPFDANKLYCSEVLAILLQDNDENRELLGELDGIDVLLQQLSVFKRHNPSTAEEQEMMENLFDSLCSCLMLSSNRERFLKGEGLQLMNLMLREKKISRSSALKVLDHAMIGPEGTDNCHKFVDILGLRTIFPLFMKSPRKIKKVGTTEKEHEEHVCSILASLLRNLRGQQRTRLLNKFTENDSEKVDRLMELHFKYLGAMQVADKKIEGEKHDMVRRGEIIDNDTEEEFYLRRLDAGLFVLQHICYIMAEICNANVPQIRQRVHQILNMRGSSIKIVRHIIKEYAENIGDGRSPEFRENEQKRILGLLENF
UniProt Q8WY54: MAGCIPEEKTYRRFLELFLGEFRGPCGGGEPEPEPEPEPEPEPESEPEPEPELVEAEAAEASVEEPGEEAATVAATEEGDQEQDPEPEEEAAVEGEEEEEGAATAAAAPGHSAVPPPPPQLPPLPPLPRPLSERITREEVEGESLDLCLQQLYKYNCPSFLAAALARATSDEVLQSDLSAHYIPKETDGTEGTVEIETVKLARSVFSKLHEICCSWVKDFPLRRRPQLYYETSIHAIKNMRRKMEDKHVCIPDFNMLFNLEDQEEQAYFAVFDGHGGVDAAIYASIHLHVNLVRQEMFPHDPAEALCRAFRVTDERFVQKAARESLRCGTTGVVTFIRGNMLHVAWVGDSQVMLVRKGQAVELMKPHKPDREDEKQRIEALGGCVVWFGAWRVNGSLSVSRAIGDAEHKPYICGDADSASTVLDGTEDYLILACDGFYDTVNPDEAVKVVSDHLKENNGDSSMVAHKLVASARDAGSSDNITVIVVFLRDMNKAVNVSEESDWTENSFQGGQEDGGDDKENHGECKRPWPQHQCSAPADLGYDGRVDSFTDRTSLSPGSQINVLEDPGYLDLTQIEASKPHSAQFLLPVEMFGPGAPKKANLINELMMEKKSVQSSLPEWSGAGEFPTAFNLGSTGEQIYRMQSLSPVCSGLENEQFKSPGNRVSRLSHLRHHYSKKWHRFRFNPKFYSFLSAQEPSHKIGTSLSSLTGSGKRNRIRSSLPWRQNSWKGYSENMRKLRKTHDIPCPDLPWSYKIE
UniProt Q8WUF8: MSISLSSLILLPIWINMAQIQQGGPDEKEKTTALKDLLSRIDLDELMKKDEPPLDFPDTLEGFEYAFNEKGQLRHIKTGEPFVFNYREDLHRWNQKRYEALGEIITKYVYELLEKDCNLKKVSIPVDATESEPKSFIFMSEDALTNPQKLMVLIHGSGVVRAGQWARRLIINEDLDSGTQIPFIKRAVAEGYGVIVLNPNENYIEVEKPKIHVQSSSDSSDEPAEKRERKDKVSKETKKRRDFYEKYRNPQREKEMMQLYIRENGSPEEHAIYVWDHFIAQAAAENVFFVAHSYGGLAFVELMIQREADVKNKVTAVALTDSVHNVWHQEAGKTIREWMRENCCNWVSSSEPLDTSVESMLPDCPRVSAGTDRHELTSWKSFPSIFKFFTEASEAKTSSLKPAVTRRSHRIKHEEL
UniProt Q92766: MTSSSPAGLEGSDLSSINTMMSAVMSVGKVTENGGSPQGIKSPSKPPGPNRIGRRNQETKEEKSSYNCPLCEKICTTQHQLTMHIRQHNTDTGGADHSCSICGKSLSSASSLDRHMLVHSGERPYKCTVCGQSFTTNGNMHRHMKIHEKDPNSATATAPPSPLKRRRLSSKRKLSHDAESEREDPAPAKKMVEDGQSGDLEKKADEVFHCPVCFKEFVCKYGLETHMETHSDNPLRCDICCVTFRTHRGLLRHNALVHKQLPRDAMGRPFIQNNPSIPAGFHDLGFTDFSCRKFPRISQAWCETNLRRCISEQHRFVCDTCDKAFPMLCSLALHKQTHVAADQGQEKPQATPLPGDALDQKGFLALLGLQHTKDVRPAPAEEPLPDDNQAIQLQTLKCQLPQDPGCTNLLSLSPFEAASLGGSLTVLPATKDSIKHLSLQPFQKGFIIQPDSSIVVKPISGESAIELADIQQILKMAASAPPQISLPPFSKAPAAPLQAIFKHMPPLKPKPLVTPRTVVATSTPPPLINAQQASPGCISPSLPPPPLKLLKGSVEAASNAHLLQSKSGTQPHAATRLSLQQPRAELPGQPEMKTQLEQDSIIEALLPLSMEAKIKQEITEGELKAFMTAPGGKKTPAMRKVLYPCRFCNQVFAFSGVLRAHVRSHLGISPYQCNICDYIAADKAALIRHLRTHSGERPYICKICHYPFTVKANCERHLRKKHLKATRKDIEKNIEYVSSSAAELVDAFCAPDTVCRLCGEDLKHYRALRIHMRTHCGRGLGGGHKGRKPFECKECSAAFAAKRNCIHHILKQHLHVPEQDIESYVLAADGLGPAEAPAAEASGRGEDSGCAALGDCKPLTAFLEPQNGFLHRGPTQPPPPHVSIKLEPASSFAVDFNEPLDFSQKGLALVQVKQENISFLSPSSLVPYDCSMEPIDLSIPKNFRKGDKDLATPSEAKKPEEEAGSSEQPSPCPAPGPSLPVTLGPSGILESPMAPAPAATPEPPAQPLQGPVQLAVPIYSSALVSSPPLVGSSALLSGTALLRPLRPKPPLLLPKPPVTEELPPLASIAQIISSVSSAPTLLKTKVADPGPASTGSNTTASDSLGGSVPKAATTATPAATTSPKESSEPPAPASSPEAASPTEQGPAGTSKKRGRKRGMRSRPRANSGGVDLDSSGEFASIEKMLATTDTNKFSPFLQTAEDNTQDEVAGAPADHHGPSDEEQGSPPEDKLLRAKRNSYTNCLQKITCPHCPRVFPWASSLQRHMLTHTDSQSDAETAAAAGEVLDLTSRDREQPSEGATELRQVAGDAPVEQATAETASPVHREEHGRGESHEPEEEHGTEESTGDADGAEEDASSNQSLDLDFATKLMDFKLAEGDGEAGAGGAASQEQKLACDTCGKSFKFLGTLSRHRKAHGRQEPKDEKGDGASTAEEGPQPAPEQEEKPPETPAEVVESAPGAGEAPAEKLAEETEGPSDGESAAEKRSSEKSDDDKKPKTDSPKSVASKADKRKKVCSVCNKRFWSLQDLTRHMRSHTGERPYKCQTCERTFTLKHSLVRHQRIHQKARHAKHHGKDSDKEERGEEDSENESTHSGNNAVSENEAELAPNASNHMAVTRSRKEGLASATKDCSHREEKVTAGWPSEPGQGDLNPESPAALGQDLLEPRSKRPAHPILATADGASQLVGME
UniProt Q8WUM9: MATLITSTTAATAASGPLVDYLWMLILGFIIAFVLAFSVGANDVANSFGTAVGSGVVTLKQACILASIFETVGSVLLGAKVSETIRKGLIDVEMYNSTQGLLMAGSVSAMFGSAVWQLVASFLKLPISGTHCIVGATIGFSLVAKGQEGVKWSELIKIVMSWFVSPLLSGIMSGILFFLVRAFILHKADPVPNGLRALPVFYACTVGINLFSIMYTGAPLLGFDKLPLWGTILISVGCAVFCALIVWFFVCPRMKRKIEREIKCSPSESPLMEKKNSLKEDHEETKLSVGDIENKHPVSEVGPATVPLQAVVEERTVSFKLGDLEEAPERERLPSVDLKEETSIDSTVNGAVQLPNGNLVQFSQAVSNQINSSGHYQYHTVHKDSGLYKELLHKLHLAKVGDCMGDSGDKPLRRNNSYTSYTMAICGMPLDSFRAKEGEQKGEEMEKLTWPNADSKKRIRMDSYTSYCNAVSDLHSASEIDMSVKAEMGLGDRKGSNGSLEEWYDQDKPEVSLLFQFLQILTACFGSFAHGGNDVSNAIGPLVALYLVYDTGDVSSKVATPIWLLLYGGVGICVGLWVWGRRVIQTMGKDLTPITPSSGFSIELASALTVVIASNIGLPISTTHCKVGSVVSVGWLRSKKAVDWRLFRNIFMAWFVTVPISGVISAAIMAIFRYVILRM

The targets below were run with CN[C@@H]1C[C@H]2O[C@@](C)([C@@H]1OC)n1c3ccccc3c3c4c(c5c6ccccc6n2c5c31)C(=O)NC4 [staurosporine] (assay: log2 fold change of tryptic peptide abundance, ligand vs vehicle (limited proteolysis) (log2 ratio); higher = more trypsin-susceptible (destabilized)). Conditions: ligand concentration: 20 uM; sample: K562 cleared lysate; digestion: 4 min, 22 C (HT-PELSA RT4min, Orbitrap Astral).

Target	log2 fold change
PTCD2 (peptide sequence: NFTLGEYK, peptide start residue: 124) (UniProt Q8WV60)	0.685
TBC1D15 (peptide sequence: AEAISLQMVK, peptide start residue: 607) (UniProt Q8TC07)	0.685
CHD6 (peptide sequence: ESFLAPVFTKDEQK, peptide start residue: 2163) (UniProt Q8TD26)	-0.31
UBLCP1 (peptide sequence: KLLVLDVDYTLFDHR, peptide start residue: 138) (UniProt Q8WVY7)	0.244
MICAL1 (peptide sequence: LWVGQLLQLVDKK, peptide start residue: 969) (UniProt Q8TDZ2)	0.162
DTD1 (peptide sequence: SASSGAEGDVSSER, peptide start residue: 194) (UniProt Q8TEA8)	0.304
ZC3H15 (peptide sequence: DEELEKDTMDNWDEK, peptide start residue: 142) (UniProt Q8WU90)	-0.176
PPIL4 (peptide sequence: AFFKMDNVLIDDR, peptide start residue: 297) (UniProt Q8WUA2)	0.709
NEK7 (peptide sequence: RMHACTASS, peptide start residue: 294) (UniProt Q8TDX7)	0.462
MIPOL1 (peptide sequence: DITHSYLEQETTGINK, peptide start residue: 7) (UniProt Q8TD10)	-0.397
PREX1 (peptide sequence: VAEEDQEDSGHDTMSYR, peptide start residue: 1151) (UniProt Q8TCU6)	-0.177
STAG1 (peptide sequence: LELFTNR, peptide start residue: 367) (UniProt Q8WVM7)	0.299
UBE2Q2 (peptide sequence: NGWYTPPKEDG, peptide start residue: 412) (UniProt Q8WVN8)	0.0301
SNX19 (peptide sequence: KSLLESFLK, peptide start residue: 630) (UniProt Q92543)	0.0535
RB1CC1 (peptide sequence: SLLEQETENLR, peptide start residue: 1091) (UniProt Q8TDY2)	0.808
UniProt Q8TDB4 (peptide sequence: DASLRRMSSNR, peptide start residue: 27)	0.208
WDR20 (peptide sequence: TLGTPLCPR, peptide start residue: 508) (UniProt Q8TBZ3)	-0.305
CTNNBL1 (peptide sequence: HIIKEYAENIGDGR, peptide start residue: 531) (UniProt Q8WYA6)	-0.176

Target	log2 fold change
ZNF384 (peptide sequence: AFTQLSNLQSHR, peptide start residue: 383) (UniProt Q8TF68)	-1.09
COG1 (peptide sequence: YRDLIEAADTIGQMR, peptide start residue: 56) (UniProt Q8WTW3)	-0.222
ANP32B (peptide sequence: KRETDDEGEDD, peptide start residue: 241) (UniProt Q92688)	0.128
RNF141 (peptide sequence: HLLFEVQPGSDSSAFWK, peptide start residue: 59) (UniProt Q8WVD5)	-0.37
PARD3B (peptide sequence: VGELTQQALQR, peptide start residue: 23) (UniProt Q8TEW8)	0.199
PPM1E (peptide sequence: RRPQLYYETSIHAIK, peptide start residue: 224) (UniProt Q8WY54)	0.634
UniProt Q8TEB1 (peptide sequence: GSFSLGEQSR, peptide start residue: 146)	-0.361
FAM172A (peptide sequence: IHVQSSSDSSDEPAEKR, peptide start residue: 211) (UniProt Q8WUF8)	-0.275
UniProt Q8WXB1 (peptide sequence: FHKPLATFSFANHTIQIR, peptide start residue: 17)	-0.0447
ZFAND1 (peptide sequence: LKMHADGDKSLPQTER, peptide start residue: 148) (UniProt Q8TCF1)	0.976
NECTIN2 (peptide sequence: YHELPTLEER, peptide start residue: 454) (UniProt Q92692)	0.024
GGH (peptide sequence: NLDGISHAPNAVK, peptide start residue: 254) (UniProt Q92820)	-0.332
PYROXD1 (peptide sequence: IHLETMCEVKKIYLQDEFR, peptide start residue: 255) (UniProt Q8WU10)	0.496
SMG7 (peptide sequence: GQGTMNPPH, peptide start residue: 1129) (UniProt Q92540)	-0.834
EDEM1 (peptide sequence: FPLSFGFQR, peptide start residue: 37) (UniProt Q92611)	-0.576
PARD3 (peptide sequence: SVNSAGLHTVQR, peptide start residue: 393) (UniProt Q8TEW0)	0.474
RREB1 (peptide sequence: MVEDGQSGDLEKK, peptide start residue: 191) (UniProt Q92766)	-0.913
SLC20A1 (peptide sequence: VGDCMGDSGDKPLRR, peptide start residue: 400) (UniProt Q8WUM9)	-0.789

Quoted at random: three records from the list.
Target	log2 fold change
RNF141 (peptide sequence: HLLFEVQPGSDSSAFWK, peptide start residue: 59) (UniProt Q8WVD5)	-0.37
PPM1E (peptide sequence: RRPQLYYETSIHAIK, peptide start residue: 224) (UniProt Q8WY54)	0.634
FAM172A (peptide sequence: IHVQSSSDSSDEPAEKR, peptide start residue: 211) (UniProt Q8WUF8)	-0.275
